Measurements taken from the supplement of paper PMC10849652.
The list shows a part of the results.

Amino acid sequences for entries named in this document (tags omitted). A change or cut given only in a name is not applied to a line headed by its entry.
UniProt Q8NB90: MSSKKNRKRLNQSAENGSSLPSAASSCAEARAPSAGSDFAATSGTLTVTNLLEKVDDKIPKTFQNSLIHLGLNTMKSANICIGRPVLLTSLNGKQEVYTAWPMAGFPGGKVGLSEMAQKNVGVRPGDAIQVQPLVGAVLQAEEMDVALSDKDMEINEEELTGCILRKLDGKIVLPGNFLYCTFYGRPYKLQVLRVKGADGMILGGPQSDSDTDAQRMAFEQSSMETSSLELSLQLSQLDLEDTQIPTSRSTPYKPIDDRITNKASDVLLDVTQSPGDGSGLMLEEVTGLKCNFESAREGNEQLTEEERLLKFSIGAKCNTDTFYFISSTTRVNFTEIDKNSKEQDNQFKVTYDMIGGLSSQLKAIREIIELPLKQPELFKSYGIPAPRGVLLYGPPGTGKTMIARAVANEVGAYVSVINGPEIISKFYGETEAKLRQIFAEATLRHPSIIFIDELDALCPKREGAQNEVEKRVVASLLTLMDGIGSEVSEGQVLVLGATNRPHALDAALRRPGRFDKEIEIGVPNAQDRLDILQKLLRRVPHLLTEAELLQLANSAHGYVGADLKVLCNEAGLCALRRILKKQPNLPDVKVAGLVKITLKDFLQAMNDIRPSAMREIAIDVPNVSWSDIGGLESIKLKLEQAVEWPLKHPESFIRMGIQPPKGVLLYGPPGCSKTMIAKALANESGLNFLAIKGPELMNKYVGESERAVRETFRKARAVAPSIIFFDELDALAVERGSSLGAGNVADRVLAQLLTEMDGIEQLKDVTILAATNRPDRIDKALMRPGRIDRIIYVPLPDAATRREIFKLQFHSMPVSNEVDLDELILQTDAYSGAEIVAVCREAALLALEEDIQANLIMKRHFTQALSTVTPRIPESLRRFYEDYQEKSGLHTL
UniProt O43805: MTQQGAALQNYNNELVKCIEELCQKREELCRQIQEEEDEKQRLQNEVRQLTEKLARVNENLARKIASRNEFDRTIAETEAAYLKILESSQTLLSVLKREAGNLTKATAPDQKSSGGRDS
UniProt Q9UBP0: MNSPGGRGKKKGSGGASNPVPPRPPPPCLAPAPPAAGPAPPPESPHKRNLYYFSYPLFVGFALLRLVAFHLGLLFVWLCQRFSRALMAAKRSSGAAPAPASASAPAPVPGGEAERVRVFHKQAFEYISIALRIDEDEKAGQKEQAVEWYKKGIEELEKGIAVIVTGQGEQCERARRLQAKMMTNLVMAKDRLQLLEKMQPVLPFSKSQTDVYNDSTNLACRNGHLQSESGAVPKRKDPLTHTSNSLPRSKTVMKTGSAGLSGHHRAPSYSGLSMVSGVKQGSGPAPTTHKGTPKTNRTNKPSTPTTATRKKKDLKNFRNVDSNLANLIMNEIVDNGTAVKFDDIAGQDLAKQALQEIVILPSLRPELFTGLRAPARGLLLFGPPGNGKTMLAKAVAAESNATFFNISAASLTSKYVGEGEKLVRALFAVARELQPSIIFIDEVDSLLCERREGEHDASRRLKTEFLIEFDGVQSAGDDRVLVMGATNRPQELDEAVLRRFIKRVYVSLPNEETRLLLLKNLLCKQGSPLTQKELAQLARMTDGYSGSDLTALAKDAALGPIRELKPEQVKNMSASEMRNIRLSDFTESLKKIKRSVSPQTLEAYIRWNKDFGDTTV
UniProt P42226: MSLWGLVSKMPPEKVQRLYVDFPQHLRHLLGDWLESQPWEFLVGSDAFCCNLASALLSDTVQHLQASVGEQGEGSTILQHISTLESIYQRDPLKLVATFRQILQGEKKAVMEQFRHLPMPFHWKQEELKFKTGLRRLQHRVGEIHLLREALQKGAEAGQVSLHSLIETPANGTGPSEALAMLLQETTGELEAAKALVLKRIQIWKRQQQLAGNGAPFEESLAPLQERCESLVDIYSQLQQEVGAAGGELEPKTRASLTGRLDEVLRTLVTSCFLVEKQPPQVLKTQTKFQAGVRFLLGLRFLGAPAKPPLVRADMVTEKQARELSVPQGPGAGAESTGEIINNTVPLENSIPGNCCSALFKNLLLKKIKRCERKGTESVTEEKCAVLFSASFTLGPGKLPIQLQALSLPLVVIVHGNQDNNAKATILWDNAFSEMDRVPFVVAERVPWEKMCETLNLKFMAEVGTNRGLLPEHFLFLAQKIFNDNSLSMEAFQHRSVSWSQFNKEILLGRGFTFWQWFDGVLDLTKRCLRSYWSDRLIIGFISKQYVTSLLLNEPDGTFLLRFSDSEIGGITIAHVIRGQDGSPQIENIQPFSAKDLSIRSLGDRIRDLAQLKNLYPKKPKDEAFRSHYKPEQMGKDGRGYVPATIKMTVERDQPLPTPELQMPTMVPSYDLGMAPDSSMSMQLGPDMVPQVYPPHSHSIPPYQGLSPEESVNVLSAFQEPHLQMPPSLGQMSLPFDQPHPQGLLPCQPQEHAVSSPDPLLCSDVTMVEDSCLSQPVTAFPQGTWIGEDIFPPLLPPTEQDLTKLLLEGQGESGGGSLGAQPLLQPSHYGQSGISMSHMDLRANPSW
UniProt Q13247: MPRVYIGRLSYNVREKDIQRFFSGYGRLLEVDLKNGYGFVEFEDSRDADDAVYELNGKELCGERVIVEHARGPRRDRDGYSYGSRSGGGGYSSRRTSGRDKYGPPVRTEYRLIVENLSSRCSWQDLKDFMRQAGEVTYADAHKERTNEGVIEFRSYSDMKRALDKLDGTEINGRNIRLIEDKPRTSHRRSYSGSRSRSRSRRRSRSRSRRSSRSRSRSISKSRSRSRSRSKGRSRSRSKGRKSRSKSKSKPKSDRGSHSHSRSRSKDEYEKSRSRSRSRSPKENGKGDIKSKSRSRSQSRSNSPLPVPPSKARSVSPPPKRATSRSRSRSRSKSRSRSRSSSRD
UniProt Q04837: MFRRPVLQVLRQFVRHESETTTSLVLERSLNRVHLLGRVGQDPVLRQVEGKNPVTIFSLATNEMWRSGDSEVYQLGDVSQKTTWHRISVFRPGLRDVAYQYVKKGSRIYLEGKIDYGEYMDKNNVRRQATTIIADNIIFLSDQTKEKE
UniProt Q16385, whole entry, looked up: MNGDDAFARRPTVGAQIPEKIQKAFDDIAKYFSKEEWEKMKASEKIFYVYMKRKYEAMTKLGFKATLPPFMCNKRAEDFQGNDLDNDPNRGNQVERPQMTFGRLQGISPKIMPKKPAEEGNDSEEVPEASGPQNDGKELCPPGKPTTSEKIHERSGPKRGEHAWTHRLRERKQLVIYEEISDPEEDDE
UniProt Q16629: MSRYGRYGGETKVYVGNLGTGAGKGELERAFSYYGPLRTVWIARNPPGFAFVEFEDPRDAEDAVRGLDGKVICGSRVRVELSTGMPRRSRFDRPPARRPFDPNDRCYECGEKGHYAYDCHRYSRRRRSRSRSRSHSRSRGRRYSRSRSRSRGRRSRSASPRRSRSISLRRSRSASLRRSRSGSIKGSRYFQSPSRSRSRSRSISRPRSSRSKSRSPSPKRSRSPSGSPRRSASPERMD
UniProt Q9BWW4: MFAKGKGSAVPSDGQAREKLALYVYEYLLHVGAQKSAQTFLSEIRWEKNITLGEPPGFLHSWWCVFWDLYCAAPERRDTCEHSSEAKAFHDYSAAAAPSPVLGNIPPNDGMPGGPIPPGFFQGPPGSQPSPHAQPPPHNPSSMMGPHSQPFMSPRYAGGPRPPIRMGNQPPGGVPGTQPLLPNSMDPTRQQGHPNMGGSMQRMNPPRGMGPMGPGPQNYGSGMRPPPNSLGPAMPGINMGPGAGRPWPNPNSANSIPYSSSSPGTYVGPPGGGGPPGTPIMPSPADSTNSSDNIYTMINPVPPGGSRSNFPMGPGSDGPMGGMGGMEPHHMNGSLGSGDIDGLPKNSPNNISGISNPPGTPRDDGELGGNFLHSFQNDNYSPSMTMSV
UniProt Q658P3: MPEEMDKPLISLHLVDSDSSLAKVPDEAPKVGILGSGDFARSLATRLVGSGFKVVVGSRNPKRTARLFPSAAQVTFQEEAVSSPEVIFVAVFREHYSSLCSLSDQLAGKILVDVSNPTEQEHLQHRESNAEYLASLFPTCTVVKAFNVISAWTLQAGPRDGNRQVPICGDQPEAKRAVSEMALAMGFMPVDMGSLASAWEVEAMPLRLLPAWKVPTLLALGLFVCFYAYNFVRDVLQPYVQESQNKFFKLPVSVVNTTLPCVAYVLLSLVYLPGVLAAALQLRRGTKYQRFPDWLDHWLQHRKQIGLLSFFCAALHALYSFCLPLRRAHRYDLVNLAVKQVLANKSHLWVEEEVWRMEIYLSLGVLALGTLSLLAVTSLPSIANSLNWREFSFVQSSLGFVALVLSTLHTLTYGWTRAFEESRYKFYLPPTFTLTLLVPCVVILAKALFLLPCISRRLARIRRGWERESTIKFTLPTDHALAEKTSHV
UniProt Q13243: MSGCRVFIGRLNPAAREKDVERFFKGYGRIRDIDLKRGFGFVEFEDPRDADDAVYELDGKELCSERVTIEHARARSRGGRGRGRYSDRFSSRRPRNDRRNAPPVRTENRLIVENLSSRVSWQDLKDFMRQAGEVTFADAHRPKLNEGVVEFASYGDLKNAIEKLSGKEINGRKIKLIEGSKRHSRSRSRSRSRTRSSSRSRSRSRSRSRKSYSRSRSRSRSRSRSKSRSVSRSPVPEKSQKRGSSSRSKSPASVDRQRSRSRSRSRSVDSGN
UniProt Q8NEF9: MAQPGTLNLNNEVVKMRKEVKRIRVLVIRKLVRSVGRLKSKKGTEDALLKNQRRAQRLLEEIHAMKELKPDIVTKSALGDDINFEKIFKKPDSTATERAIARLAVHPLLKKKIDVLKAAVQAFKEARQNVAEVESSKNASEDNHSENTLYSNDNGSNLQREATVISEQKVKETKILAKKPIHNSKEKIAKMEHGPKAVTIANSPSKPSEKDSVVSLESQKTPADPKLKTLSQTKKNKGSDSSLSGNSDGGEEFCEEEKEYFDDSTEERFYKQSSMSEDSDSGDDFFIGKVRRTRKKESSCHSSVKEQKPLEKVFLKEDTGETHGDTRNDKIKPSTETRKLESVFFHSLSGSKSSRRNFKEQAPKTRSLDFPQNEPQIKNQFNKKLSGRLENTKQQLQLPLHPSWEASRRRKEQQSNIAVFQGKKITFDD
UniProt P40763, whole entry, looked up: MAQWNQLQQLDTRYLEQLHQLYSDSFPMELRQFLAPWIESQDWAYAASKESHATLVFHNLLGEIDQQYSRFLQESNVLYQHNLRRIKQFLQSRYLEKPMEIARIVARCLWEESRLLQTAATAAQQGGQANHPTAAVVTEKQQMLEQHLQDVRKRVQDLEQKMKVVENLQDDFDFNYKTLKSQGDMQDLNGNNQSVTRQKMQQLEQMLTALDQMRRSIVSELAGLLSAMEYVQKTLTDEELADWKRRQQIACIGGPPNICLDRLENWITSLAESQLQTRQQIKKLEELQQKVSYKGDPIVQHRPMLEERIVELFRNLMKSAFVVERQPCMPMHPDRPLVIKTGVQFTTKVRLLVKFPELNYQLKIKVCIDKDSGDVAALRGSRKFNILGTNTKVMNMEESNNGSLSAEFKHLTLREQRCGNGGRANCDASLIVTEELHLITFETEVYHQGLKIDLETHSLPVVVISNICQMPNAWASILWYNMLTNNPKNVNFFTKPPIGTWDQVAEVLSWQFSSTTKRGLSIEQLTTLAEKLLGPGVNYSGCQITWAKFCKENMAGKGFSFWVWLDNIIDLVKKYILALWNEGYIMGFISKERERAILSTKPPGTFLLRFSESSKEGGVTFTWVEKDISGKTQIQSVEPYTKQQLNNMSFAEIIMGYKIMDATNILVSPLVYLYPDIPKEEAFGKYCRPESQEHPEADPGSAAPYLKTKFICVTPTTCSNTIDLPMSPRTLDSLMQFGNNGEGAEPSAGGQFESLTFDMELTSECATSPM

Experiments:
Test in all cases: log2 fold change, soluble protein after heating vs DMSO (PISA); higher = thermal stabilisation; K562 lysate, 10 uM; active = over 0.2 and 3.5 SD of the protein, either way, in both replicates (recomputed)
[1] = compound: CS(=O)(=O)CCNCc1ccc(-c2ccc3ncnc(Nc4ccc(OCc5cccc(F)c5)c(Cl)c4)c3c2)o1 [lapatinib]
Method in brief: (§1)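 Quantification was by TMTpro 16plex LC-MS/MS with equalised channel sums, applied to the supernatant after 21,000xg for 90 min. Samples were crude K562 extract at 1 mg/mL protein in PBS pH 7.4 with 1 mM MgCl2, treated with 10 μM compound for 30 min, heated for 3 min across 48°C-58°C, pooled and brought to 0.5% NP-40 at 4°C. Values are log-two fold changes in thermal stability relative to solvent controls, from duplicates.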

[2] = compound: CS(=O)(=O)N1CCN(Cc2cc3nc(-c4cccc5[nH]ncc45)nc(N4CCOCC4)c3s2)CC1 [pictilisib]
Method in brief: as §1

[3] = compound: C[C@@H](Oc1cc(-c2cnn(C3CCNCC3)c2)cnc1N)c1c(Cl)ccc(F)c1Cl [crizotinib]
Method in brief: as §1

[4] = compound: C[C@H](C1=CC=C(C=C1)C(=O)NC2=C3C=CNC3=NC=C2)N
Method in brief: as §1

[5] = compound: C[C@H](Nc1ncnc2nc[nH]c12)c1cc2cccc(Cl)c2c(=O)n1-c1ccccc1 [duvelisib]
Method in brief: as §1

[6] = compound: Cc1cc(Nc2cc(CN3CCOCC3)c3nc(C)c(Cc4ccc(Cl)cc4F)n3n2)n[nH]1 [gandotinib]
Method in brief: as §1

[7] = compound: Cc1cc(Nc2cc(N3CCN(C)CC3)nc(Sc3ccc(NC(=O)C4CC4)cc3)n2)n[nH]1 [tozasertib]
Method in brief: as §1

[8] = compound: Cc1ccc(-n2nc(C(C)(C)C)cc2NC(=O)Nc2ccc(OCCN3CCOCC3)c3ccccc23)cc1 [doramapimod]
Method in brief: as §1

[9] = compound: Cc1ccc(NC(=O)c2ccc(CN3CC[C@H](N(C)C)C3)c(C(F)(F)F)c2)cc1Nc1nccc(-c2cncnc2)n1 [bafetinib]
Method in brief: as §1

[10] = compound: Cc1cccc(CC(=O)N2CCc3c2ccc(-c2cn(C)c4ncnc(N)c24)c3F)n1
Method in brief: as §1

[11] = compound: Cc1cn(-c2cc(NC(=O)c3ccc(C)c(Nc4nccc(-c5cccnc5)n4)c3)cc(C(F)(F)F)c2)cn1 [nilotinib]
Method in brief: as §1

[12] = compound: Cc1nc(Nc2n[nH]c3c2CN(C(=O)N[C@H](CN(C)C)c2ccccc2)C3(C)C)c2sccc2n1
Method in brief: as §1

[13] = compound: Cc1nc(Nc2ncc(C(=O)Nc3c(C)cccc3Cl)s2)cc(N2CCN(CCO)CC2)n1 [dasatinib]
Method in brief: as §1

[14] = compound: Cc1ncc(-c2ccnc(Nc3ccc(S(C)(=O)=O)cc3)n2)n1C(C)C
Method in brief: as §1

[15] = compound: Cn1cc(-c2ccc3c(c2)CCN3C(=O)Cc2cccc(C(F)(F)F)c2)c2c(N)ncnc21
Method in brief: as §1

[16] = compound: Cn1cc(CNCC2CCN(c3ncc(C(=O)NO)cn3)CC2)c2ccccc21 [quisinostat]
Method in brief: as §1

[17] = compound: Cn1cncc1[C@@](N)(c1ccc(Cl)cc1)c1ccc2c(c1)c(-c1cccc(Cl)c1)cc(=O)n2C [tipifarnib]
Method in brief: as §1

[18] = compound: NC(=O)Nc1cc(-c2cccc(F)c2)sc1C(=O)N[C@H]1CCCNC1
Method in brief: as §1

[19] = compound: NC(=O)c1cnc(N[C@@H]2CCCC[C@@H]2N)nc1Nc1cccc(-n2nccn2)c1
Method in brief: as §1

[20] = compound: NC1(c2ccc(-c3nc4ccn5c(=O)[nH]nc5c4cc3-c3ccccc3)cc2)CCC1
Method in brief: as §1

Target	log2 fold change [1]	log2 fold change [2]	log2 fold change [3]	log2 fold change [4]	log2 fold change [5]	log2 fold change [6]	log2 fold change [7]	log2 fold change [8]	log2 fold change [9]	log2 fold change [10]	log2 fold change [11]	log2 fold change [12]	log2 fold change [13]	log2 fold change [14]	log2 fold change [15]	log2 fold change [16]	log2 fold change [17]	log2 fold change [18]	log2 fold change [19]	log2 fold change [20]
SPATA5 (UniProt Q8NB90)	inactive: -0.017	inactive: -0.009	inactive: -0.046	inactive: -0.027	inactive: -0.015	inactive: -0.13	inactive: 0.02	inactive: -0.017	inactive: -0.05	inactive: 0.034	inactive: 0.001	inactive: 0.006	inactive: -0.052	inactive: -0.002	inactive: 0.011	inactive: -0.023	inactive: -0.002	inactive: 0.03	inactive: 0.001	inactive: -0.064
SSNA1 (UniProt O43805)	inactive: 0.012	inactive: -0.015	inactive: 0.138	inactive: 0.003	inactive: -0.038	inactive: 0.061	inactive: 0.045	inactive: 0.019	inactive: -0.014	inactive: -0.034	inactive: -0.038	inactive: 0.057	inactive: -0.004	inactive: -0.004	inactive: -0.079	inactive: 0.081	inactive: 0.007	inactive: -0.039	inactive: 0.006	inactive: 0.019
SPAST (UniProt Q9UBP0)	inactive: 0.04	inactive: -0.015	inactive: -0.01	inactive: 0.011	inactive: -0.017	inactive: -0.114	inactive: 0.072	inactive: 0.028	inactive: -0.108	inactive: 0.016	inactive: -0.013	inactive: -0.007	inactive: -0.009	inactive: -0.047	inactive: 0.066	inactive: -0.049	inactive: 0.032	inactive: 0.047	inactive: 0.011	inactive: 0.018
SPCS1, A0A5F9YFS9	inactive: -0.022	inactive: -0.125	inactive: 0.021	inactive: -0.01	inactive: -0.229	inactive: -0.004	inactive: -0.078	inactive: -0.074	inactive: -0.162	inactive: -0.028	inactive: -0.047	inactive: -0.016	inactive: -0.101	inactive: 0.097	inactive: -0.121	inactive: 0.06	inactive: -0.013	inactive: 0.015	inactive: -0.048	inactive: 0.009
STAT6 (UniProt P42226)	inactive: 0.07	inactive: -0.035	inactive: -0.075	inactive: -0.018	inactive: -0.012	inactive: -0.028	inactive: -0.023	inactive: 0.041	inactive: -0.021	inactive: 0.056	inactive: 0	inactive: 0.026	inactive: -0.007	inactive: -0.09	inactive: -0.058	inactive: -0.022	inactive: -0.025	inactive: 0.005	inactive: 0.023	inactive: 0.008
SRSF6 (UniProt Q13247)	inactive: 0.006	inactive: 0.017	inactive: 0.057	inactive: 0.149	inactive: 0.093	inactive: -0.143	inactive: 0.014	inactive: 0.021	inactive: -0.098	inactive: -0.119	inactive: 0.01	inactive: -0.003	inactive: 0.066	inactive: 0.049	inactive: 0.082	inactive: 0.097	inactive: 0.013	inactive: -0.092	inactive: 0.017	inactive: -0.006
SSBP1 (UniProt Q04837)	inactive: -0.013	inactive: 0.017	inactive: 0.004	inactive: -0.049	inactive: -0.01	inactive: 0.046	inactive: 0.012	inactive: -0.006	inactive: 0.027	inactive: -0.001	inactive: 0.005	inactive: 0.007	inactive: 0.023	inactive: 0.003	inactive: -0.001	inactive: -0.043	inactive: -0.002	inactive: 0.011	inactive: 0.017	inactive: 0.02
SSX2 (UniProt Q16385)	inactive: 0.023	inactive: 0.012	inactive: 0.08	inactive: 0.013	inactive: -0.085	inactive: 0.034	inactive: -0.044	inactive: 0.036	inactive: -0.009	inactive: -0.052	inactive: 0.095	inactive: 0.029	inactive: 0.086	inactive: -0.024	inactive: 0.003	inactive: 0.07	inactive: 0.032	inactive: -0.005	inactive: -0.072	inactive: 0.082
SRSF7 (UniProt Q16629)	inactive: -0.061	inactive: 0.075	inactive: 0.084	active: -0.218	inactive: 0.058	inactive: 0	inactive: 0.036	inactive: -0.01	inactive: 0.05	inactive: 0.194	inactive: -0.006	inactive: -0.053	inactive: 0.011	inactive: -0.056	inactive: -0.006	inactive: 0.047	inactive: 0.016	inactive: -0.088	inactive: 0.019	inactive: 0.034
SRGAP2 (UniProt O75044)	inactive: -0.024	inactive: 0.008	inactive: 0.015	inactive: -0.003	inactive: 0.009	inactive: -0.021	inactive: 0.035	inactive: -0.04	inactive: -0.039	inactive: 0.032	inactive: -0.062	inactive: -0.028	inactive: -0.005	inactive: 0.018	inactive: 0.016	inactive: 0.017	inactive: 0.001	inactive: 0.004	inactive: 0.003	inactive: 0.015
SSBP3 (UniProt Q9BWW4)	inactive: 0.039	inactive: -0.158	inactive: 0.018	inactive: -0.014	inactive: 0.019	inactive: -0.019	inactive: -0.041	inactive: 0.014	inactive: -0.06	inactive: 0.029	inactive: -0.005	inactive: 0.061	inactive: -0.015	inactive: 0.014	inactive: 0.016	inactive: 0.018	inactive: 0.028	inactive: -0.035	inactive: -0.029	inactive: -0.097
STEAP3 isoform 2 (UniProt Q658P3)	inactive: -0.01	inactive: 0	inactive: 0.023	inactive: -0.101	inactive: -0.072	inactive: 0.113	inactive: -0.069	inactive: 0.061	inactive: -0.014	inactive: 0.104	inactive: -0.039	inactive: 0.016	inactive: 0.202	inactive: -0.028	inactive: -0.024	inactive: -0.05	inactive: 0.007	inactive: -0.112	inactive: 0.015	
SRSF5 (UniProt Q13243)	inactive: -0.02	inactive: 0.03	inactive: -0.018	inactive: -0.036	inactive: -0.008	inactive: 0.037	inactive: 0.015	inactive: -0.009	inactive: -0.017	inactive: 0.007	inactive: -0.014	inactive: 0.025	inactive: 0.028	inactive: -0.015	inactive: -0.008	inactive: -0.109	inactive: 0.001	inactive: 0.009	inactive: 0.054	inactive: 0.039
SRFBP1 (UniProt Q8NEF9)	inactive: 0.007	inactive: -0.023	inactive: -0.077	inactive: -0.127	inactive: -0.152	inactive: 0.128	inactive: -0.002	inactive: -0.05	inactive: -0.038	inactive: 0.082	inactive: -0.02	inactive: -0.015	inactive: -0.101	inactive: -0.011	inactive: -0.113	inactive: 0.014	inactive: 0.003	inactive: 0.031	inactive: -0.032	inactive: 0.054
STAT3 isoform 3 (UniProt P40763)	inactive: -0.016	inactive: -0.007	inactive: 0.045	inactive: 0	inactive: -0.069	inactive: -0.046	inactive: -0.05	inactive: -0.112	inactive: -0.172	inactive: -0.028	inactive: -0.051	inactive: 0.028	inactive: -0.038	inactive: -0.066	inactive: -0.079	inactive: 0.012	inactive: -0.031	inactive: 0.022	inactive: -0.072	inactive: 0.095
STAT3 isoform 2 (UniProt P40763)	inactive: -0.008	inactive: 0.025	inactive: -0.027	inactive: 0.043	inactive: 0	inactive: -0.049	inactive: -0.018	inactive: -0.003	inactive: -0.03	inactive: -0.01	inactive: -0.005	inactive: -0.022	inactive: -0.019	inactive: 0	inactive: 0.006	inactive: 0	inactive: 0.008	inactive: 0.019	inactive: 0	inactive: -0.035

Taken from above.
log2 fold change [3], SRFBP1 (UniProt Q8NEF9) is entered as inactive: -0.077
log2 fold change [15], SSBP3 (UniProt Q9BWW4) is entered as inactive: 0.016
